Experimental data published in PubChem BioAssay AID540256 (National Center for Advancing Translational Sciences (NCATS), 2011).
Values joined by “and” are separate entries in the source; they are usually repeats but may differ in a detail not shown here. Equal entries are not always repeated. Out of some 300,000 compounds screened, about 3,700 (1.2%) were called active. The inconclusive results got no clear call from the source; some entries with a clear call stand among them for comparison. Calls come from the whole dose curve; tested in HEK293 cells. Potencies beside an inconclusive call are fits to weak or partial responses and may not hold up.

Experiment: qHTS for Inhibitors of binding or entry into cells for Lassa Virus; note: nearly all actives have a fitted effect of over 50% in size
Conditions: Lassa virus pseudotype entry inhibition, cell reporter; activity change, negative = inhibition: at 37.9 µM (top of the series) unless noted
% is set by controls: 0 for no effect and ±100 for the full control effect; potency is the fitted concentration of half-maximal effect.

Row | SMILES | Potency | activity change, negative = inhibition
1 | COc1ccc(Nc2nc(N)nc(CSc3nc4ccccc4s3)n2)cc1 | inconclusive: 12.6 µM [inhibitor, partial curve, poor fit] | –
2 | COc1ccc(-c2cc(NCc3ccc(C)cc3)n3cnnc3n2)cc1 | inconclusive: 12.6 µM [inhibitor, single point] | –
3 | CCN1C(=O)c2ccccc2Sc2ccc(NC(=O)Nc3ccc(Br)c(C)c3)cc21 | inconclusive: 25.1 µM [inhibitor, single point] | –
4 | O=c1oc2c3c4c(cc2c2c1CCC2)OCCN4CCC3 | – | inactive: -5.02%
5 | N#Cc1nc(Cc2cccc3ccccc23)oc1NCC1CCCO1 (configuration not stated) | – | inactive: 29.7% [at 14.3 µM]
6 | COc1ccc(-c2[nH]c(-c3ccccc3)nc2SCC(=O)NC2CCCC2)cc1 | inactive and inconclusive: 35.5 µM [inhibitor, single point] | –
7 | COc1ccc(CCNC(=O)c2cc3c(=O)n(C)c4cc(Cl)ccc4c3s2)cc1OC | inconclusive: 31.6 µM [inhibitor, single point] | –
8 | CCOC(=O)c1cc(-c2ccc(Cl)cc2)nc2c1c(=O)[nH]c(=O)n2CCOC | inconclusive: 2.82 µM [inhibitor, full curve, poor fit] | –
9 | O=C(NCC1CCCO1)c1cccc(S(=O)(=O)N(Cc2ccccc2)c2ccccc2)c1 (configuration not stated) | inconclusive: 12.6 µM [inhibitor, partial curve] | –
10 | Oc1c(C(Nc2cccc(C(F)(F)F)c2)c2cccnc2)ccc2cccnc12 (configuration not stated) | inconclusive: 20.6 µM [inhibitor, partial curve, poor fit] | –
11 | CCC1CN(C(=O)NCc2cccc(OC)c2)c2ccccc2O1 (configuration not stated) | inconclusive: 39.8 µM [inhibitor, partial curve, poor fit] | –
12 | O=C(COc1ccccc1F)NCc1ccc(-n2cccc2)cc1 | inconclusive: 3.16 µM [inhibitor, partial curve, poor fit] | –
13 | COc1ccc(Oc2coc3c(CN4CCOCC4)c(O)ccc3c2=O)cc1 | inconclusive: 2.59 µM [inhibitor, partial curve, poor fit] | –
14 | CC1CCCCN1CC(=O)Nc1ccc(N2CCCCCC2)cc1 (configuration not stated) | – | inactive: -4.18%
15 | CCOc1cc(C=O)ccc1OCCSc1ccc(C)cc1 | inconclusive: 20.6 µM [inhibitor, single point] | –
16 | CCOC(=O)c1ccc(N2C(=O)c3[nH]nc(-c4ccccc4)c3C2c2cccs2)cc1 (configuration not stated) | inconclusive: 35.5 µM [inhibitor, partial curve, poor fit] | –
17 | Fc1ccc(CNC(=S)Nc2ccc(Cl)cc2Cl)cc1 | inconclusive: 3.98 µM [inhibitor, full curve, poor fit] | –
18 | CCNC(=S)NNC(=O)C(c1ccccc1)c1ccccc1 | inconclusive: 0.0164 µM [inhibitor, full curve, poor fit] | –
19 | Cn1cnnc1SCNC(=O)C(F)(F)F | – | inactive: 2.62%
20 | Cc1nc2ccccn2c1C(=O)N/N=C/c1ccc(F)cc1 | inconclusive: 35.5 µM [activator, single point] | –
21 | Cn1nc(C(F)(F)F)c(C#N)c1N1CCN(c2ccccn2)CC1 | – | inactive: -12.6%
22 | CCN(CC)S(=O)(=O)c1ccc(C(=O)NC2CC(=O)N(c3ccc4c(c3)OCCO4)C2)cc1 (configuration not stated) | – | inactive: -8.62% [at 46.1 µM]
23 | COc1cc(/C=C/C(=O)OCC(=O)NCc2ccco2)ccc1O | inconclusive: 35.5 µM [inhibitor, single point] | –

Molecules shown so far containing a CF3 group, in the order listed:
Row | SMILES | Potency | activity change, negative = inhibition
10 | Oc1c(C(Nc2cccc(C(F)(F)F)c2)c2cccnc2)ccc2cccnc12 (configuration not stated) | inconclusive: 20.6 µM [inhibitor, partial curve, poor fit] | –
19 | Cn1cnnc1SCNC(=O)C(F)(F)F | – | inactive: 2.62%
21 | Cn1nc(C(F)(F)F)c(C#N)c1N1CCN(c2ccccn2)CC1 | – | inactive: -12.6%

(list continues)

Row | SMILES | Potency | activity change, negative = inhibition
24 | Cc1cc2c(cc1C)CSC(c1c(O)ccc3ccccc13)SC2 | inconclusive: 29.1 µM [inhibitor, single point] | –
25 | Oc1ccc(C2CNCCc3c2cc(O)c(O)c3Cl)cc1 (configuration not stated) | inconclusive: 29.1 µM [activator, single point] | –
26 | COc1ccc2c(c1)CCc1c(C(=O)N3CCCCCC3)noc1-2 | – | inactive: 48.2% [at 14.3 µM]
27 | S=C(NCc1cccs1)NCC1CCCO1 (configuration not stated) | – | inactive: 3.1%
28 | Cc1nn(Cc2ccc(C(=O)N3CCN(C(=O)c4ccco4)CC3)o2)c(C)c1[N+](=O)[O-] | – | inactive: 16.8%
29 | Cc1ccc(-n2ccnc(SCC(=O)NC3CCCC3)c2=O)cc1F | – | inactive: 1.41%
30 | Cc1ccc(-c2cc(C(=O)NCC3CCCO3)no2)cc1 (configuration not stated) | inconclusive: 20.6 µM [inhibitor, single point] | –
31 | COc1ccccc1N1CCN(C(c2ccccc2)c2nnc(-c3ccccc3Cl)o2)CC1 (configuration not stated) | – | inactive: -3.15% [at 46.1 µM]
32 | CN1CC2([N+](=O)[O-])CC=C(OCCO)C([N+](=O)[O-])(C1)C2 (configuration not stated) | – | inactive: 7.31%
33 | Cc1cccc(N=Nc2c(C)c(C#N)c(O)[nH]c2=O)c1 | – | inactive: 20.5%
34 | Cc1c(Cc2c(Cl)cccc2Cl)c(=O)ccn1C(C)c1ccccc1 (configuration not stated) | inconclusive: 4.47 µM [activator, full curve, poor fit] | –
35 | COc1ccc(/C=N\NC(=O)C2=NNC(=O)C2C)cc1 (configuration not stated) | – | inactive: -1.27%
36 | C=CCN(CC=C)C(=S)NC(=O)/C=C/c1ccc(OC)cc1 | inconclusive: 29.1 µM [inhibitor, single point] | –
37 | CC(=O)NC(c1ccccc1)c1c(O)ccc2ccccc12 (configuration not stated) | – | inactive: 0.9%
38 | CO/N=C/CC(=O)c1ccc(OC)cc1 | inconclusive: 35.5 µM [activator, single point] | –
39 | Cc1cc(C)c(C(=O)NC2CC(C)(C)Cc3c2cnn3-c2cccc(F)c2)[nH]1 (configuration not stated) | inconclusive: 14.1 µM [inhibitor, partial curve] | –
40 | CCOc1ccc(OCC)c(NC(=O)CN(c2ccc(C)cc2)S(=O)(=O)c2c(C)n[nH]c2C)c1 | inconclusive: 7.94 µM [inhibitor, partial curve, poor fit] | –
41 | O=C(COc1ccccc1)Nc1ccccc1F | inconclusive: 0.631 µM [inhibitor, single point] | –
42 | CC1(C)Cc2c(sc(NC(=O)COc3cccc4ccccc34)c2C#N)C(C)(C)N1 | inconclusive: 35.5 µM [inhibitor, single point] | –
43 | O=C(OCc1cccc([N+](=O)[O-])c1)c1ccc2ccccc2n1 | inconclusive: 0.631 µM [activator, single point] | –
44 | Cc1ccc(-c2nnc(N3CCN(C(=O)c4ccco4)CC3)c3ccccc23)cc1 | inconclusive: 14.6 µM [inhibitor, partial curve, poor fit] | –
45 | Cc1ccc(C)c(NC(=O)C2CCCN(S(=O)(=O)c3cccc4nsnc34)C2)c1 (configuration not stated) | – | inactive: 19.5% [at 46.1 µM]
46 | CC(C)(C)CC(=O)Nc1ccccc1N1CCN(c2ccc(F)cc2)CC1 | inconclusive: 35.5 µM [inhibitor, single point] | –

Row | SMILES | Potency | activity change, negative = inhibition
47 | CCc1ccc(OCC(=O)NNC(=O)Cc2cccs2)cc1 | inconclusive: 12.6 µM [inhibitor, single point] | –
48 | N#CC1=C(SCC(=O)Nc2cccc3cccnc23)NC(=O)C(C#N)C12CCCCC2 (configuration not stated) | – | inactive: 20.7%
49 | CC(=O)c1cc2c(C)c(C(=O)c3ccccc3)oc2cc1O | inconclusive: 35.5 µM [inhibitor, single point] | –
50 | CCSC1=N/C(=C\c2ccc(OC)cc2)C(=O)N1 | inconclusive: 6.51 µM [inhibitor, partial curve] | –
51 | CCOc1ccc(CCNC(=O)c2ccc3[nH]c(C)c(C)c3c2)cc1 | inconclusive: 12.6 µM [inhibitor, partial curve, poor fit] | –
52 | O=C(OCc1ccccc1)c1ccc(-c2nnn(Cc3ccccc3F)n2)cc1 | – | inactive: 10.6% [at 46.1 µM]
53 | CCc1nc(-c2ccc(C)nc2OC)no1 | inconclusive: 15.8 µM [activator, partial curve, poor fit] | –
54 | COc1ccc(-c2cc(-c3nnc(COC(=O)CC4CC5CCC4C5)o3)c3ccccc3n2)cc1OC (configuration not stated) | – | inactive: 0.332%
55 | Cc1cccn2c(=O)c3c(nc12)N1CCc2ccccc2C1C1(C3)C(=O)NC(=O)N(C)C1=O (configuration not stated) | inconclusive: 0.73 µM [activator, full curve, poor fit] | –
56 | O=C(C1COc2ccccc2O1)N(Cc1cccnc1)c1nc2ccc(F)cc2s1 (configuration not stated) | inconclusive: 5.62 µM [activator, full curve] | –
57 | Oc1c(C(c2ccccc2)N2CCOCC2)ccc2ccccc12 (configuration not stated) | inconclusive: 4.47 µM [inhibitor, partial curve] | –
58 | COc1cccc(C(=O)N=c2sc3cc(S(C)(=O)=O)ccc3n2C)c1 | – | inactive: 13.6%
59 | CCOCCCNC(=O)c1cc(Sc2ccc(F)cc2)nc2ccccc12 | inconclusive: 35.5 µM [inhibitor, single point] | –
60 | Cc1cc(C)c2nc(SCC(=O)Nc3cc(C)on3)c(C)cc2c1 | inconclusive: 6.31 µM [inhibitor, single point] | –
61 | COc1cc(OC)cc(C(=O)N[C@H](C(=O)Nc2nc3ccccc3[nH]2)C(C)C)c1 | inconclusive: 1 µM [inhibitor, full curve, poor fit] | –
62 | O=C(Nc1c(Cl)cc2c(c1Cl)Cc1cc([N+](=O)[O-])ccc1-2)C(Cl)Cl | inconclusive: 35.5 µM [inhibitor, single point] | –
63 | CC(C)NC(=O)NNC(=O)Cn1nnc(-c2cccc(Cl)c2Cl)n1 | inconclusive: 14.1 µM [activator, partial curve, poor fit] | –
64 | CCOc1ccc(CCNC(=O)c2ccc(Cn3c(=O)c4cccn4c4cccnc43)cc2)cc1 | inconclusive: 5.62 µM [inhibitor, single point] | –
65 | COc1cccc(C(=O)c2sc(Nc3ccc(C)cc3C)c(S(=O)(=O)c3ccccc3)c2N)c1 | inconclusive: 2.51 µM [inhibitor, partial curve, poor fit] | –
66 | COc1ccc(S(=O)(=O)Nc2cc(C(=O)NC3CCCCCC3)ccc2N2CCOCC2)cc1 | inconclusive: 4.61 µM [inhibitor, partial curve, poor fit] | –
67 | Cc1cc(NC(=O)CSc2nc3c(c(=O)n2-c2ccc(Cl)cc2)SCC3)no1 | inconclusive: 32.6 µM [inhibitor, single point] | –
